We go through 18 compounds from PubChem BioAssay AID2685 (National Center for Advancing Translational Sciences (NCATS), 2010).

A short description of the experiment: qHTS Assay for Lipid Storage Modulators in Drosophila S3 Cells.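 For cell number change: cells counted by Cell Tracker Red CMTPX staining in the red channel.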 Particulars: BODIPY lipid droplet fluorescence, 18-24 h; for cell number change: measured here: cell count max response, cells fed with added oleic acid. Put shortly:
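Drosophila S3 cells loaded with oleic acid (400 uM, as added) and compounds at several concentrations; lipid droplets imaged by 488-nm laser-scanning cytometry, 500–530 nm intensity and object ratio to cell channel. Percent activity normalized to 20 uM Triacsin C.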
Background: In qHTS, concentration-response curves come from the screen itself.

Setting [1] is: measured here: lipid fluorescence (Fed channel) AC50, cells fed with added oleic acid.
The mark [2] stands for this setting: measured here: cell number channel AC50, cells fed with added oleic acid.

This is one part of the list. Further columns of the screen follow, without active or inactive calls. Most of these compounds were active or inconclusive in the main read-out, so they are no random draw. The note in brackets gives the kind of curve behind each potency; many fits are weak.

As a reminder, the AC50 is the midpoint of the concentration-response curve, whichever way the signal moves. Consider `CCc1c(O)nc(N2CCN(Cc3ccccc3)CC2)[nH]c1=O`, for which the cell number change was -2.16%. The half-maximal activity concentration (AC50) under setting [1] is 32.6 µM [falling, single point]. Turning to `Cc1cn(-c2cc(NC(=O)c3ccc(C)c(NC(=O)c4cccc(-c5cn[nH]c(=O)c5)c4)c3)cc(C(F)(F)F)c2)cn1`, the cell number change was found to be 8.09%. Also, under setting [1], the AC50 was 18.4 µM [falling, single point]. With `O=C(NCCCn1ccnc1)c1cc2c(ccc3ccccc32)o1`, the AC50 under setting [2] was 6.51 µM [rising, partial curve, poor fit]. With `CC(C)C(NC(=O)c1ccc(C(C)(C)C)cc1)C(=O)NCCc1ccccn1` (stereo not drawn), the cell number change stood at 14.7%. Moreover, the AC50 under setting [1] was 3.26 µM [rising, partial curve, poor fit]. For `Cc1cccc(C(=O)OCC(=O)c2c(C)[nH]c3ccccc23)c1O`, the cell number change came to 25.7%. Besides, the AC50 under setting [1] was 0.82 µM [rising, full curve, poor fit]. In the case of `Cc1onc(-c2ccccc2)c1C(=O)OCC(=O)NCc1ccc(F)cc1`, the AC50 under setting [1] was 6.51 µM [rising, single point]. Consider `COc1ccc(OC)c(NC(=O)c2nnn(Cc3ccc(Br)cc3F)c2N)c1`, for which the AC50 under setting [2] was 0.206 µM [rising, full curve, poor fit] and the AC50 under setting [1] is 6.51 µM [rising, single point]. For `COc1ccccc1NCCC(=O)OCC(=O)Nc1cccc(S(=O)(=O)N(C)C)c1`, the cell number change was -0.518%. Further, the AC50 under setting [1] was 32.6 µM [falling, single point]. In the case of `COc1ccc(/C=C/C(=O)c2ccc(NS(=O)(=O)c3ccc(C)cc3)cc2)cc1O`, the cell number change stood at 0.246%. For the same compound, the AC50 under setting [1] was 29.1 µM [falling, single point]. For `Cc1cccc(C)c1NC(=O)CSc1nnc(C2CCCCC2)o1`, the cell number change is 17.5%. In the case of `Clc1cccc(-c2noc3ncnc(Nc4ccc5c(c4)OCO5)c23)c1`, the cell number change stood at 0.898%. Regarding `CC(=O)N(Cc1ccccc1)c1ccccc1C(=O)O`, the AC50 under setting [1] is 16.4 µM [falling, partial curve, poor fit]. On to `CCC(=O)NCCc1nc2cc(NC(=O)c3cccc([N+](=O)[O-])c3)ccc2n1C`, for which the cell number change stood at 68.3%. The AC50 under setting [2] is 25.9 µM [rising, single point]. Regarding `CC(C)OC(=O)CN1C(=O)S/C(=C/c2ccc(N3CCCCC3)o2)C1=O`, the cell number change was determined as 16.1%. For the compound `Clc1ccc(CSc2nncn2-c2ccc3c(c2)OCCO3)cc1`, the cell number change was 17.3%. The AC50 under setting [1] is 20.6 µM [rising, partial curve, poor fit]. Regarding `Cc1ccc(CNC(=O)C2CCC(CNS(=O)(=O)c3cccs3)CC2)cc1` (stereo not drawn), the cell number change was 141%. Moreover, the AC50 under setting [2] is 25.9 µM [rising, single point]. For `O=C(O)CCC(=O)N1N=C(c2ccccc2)CC1c1cccs1` (stereo not drawn), the cell number change was 10.9%.

Regarding `CCS(=O)(=O)N1Cc2ccccc2CC1C(=O)Nc1nc2c(C)cccc2s1` (stereo not drawn), the AC50 under setting [1] was 29.1 µM [rising, single point].
